For one test, the target named is T1, Flag‐RIP140 (UniProt Q8CBD1).
T1 sequence: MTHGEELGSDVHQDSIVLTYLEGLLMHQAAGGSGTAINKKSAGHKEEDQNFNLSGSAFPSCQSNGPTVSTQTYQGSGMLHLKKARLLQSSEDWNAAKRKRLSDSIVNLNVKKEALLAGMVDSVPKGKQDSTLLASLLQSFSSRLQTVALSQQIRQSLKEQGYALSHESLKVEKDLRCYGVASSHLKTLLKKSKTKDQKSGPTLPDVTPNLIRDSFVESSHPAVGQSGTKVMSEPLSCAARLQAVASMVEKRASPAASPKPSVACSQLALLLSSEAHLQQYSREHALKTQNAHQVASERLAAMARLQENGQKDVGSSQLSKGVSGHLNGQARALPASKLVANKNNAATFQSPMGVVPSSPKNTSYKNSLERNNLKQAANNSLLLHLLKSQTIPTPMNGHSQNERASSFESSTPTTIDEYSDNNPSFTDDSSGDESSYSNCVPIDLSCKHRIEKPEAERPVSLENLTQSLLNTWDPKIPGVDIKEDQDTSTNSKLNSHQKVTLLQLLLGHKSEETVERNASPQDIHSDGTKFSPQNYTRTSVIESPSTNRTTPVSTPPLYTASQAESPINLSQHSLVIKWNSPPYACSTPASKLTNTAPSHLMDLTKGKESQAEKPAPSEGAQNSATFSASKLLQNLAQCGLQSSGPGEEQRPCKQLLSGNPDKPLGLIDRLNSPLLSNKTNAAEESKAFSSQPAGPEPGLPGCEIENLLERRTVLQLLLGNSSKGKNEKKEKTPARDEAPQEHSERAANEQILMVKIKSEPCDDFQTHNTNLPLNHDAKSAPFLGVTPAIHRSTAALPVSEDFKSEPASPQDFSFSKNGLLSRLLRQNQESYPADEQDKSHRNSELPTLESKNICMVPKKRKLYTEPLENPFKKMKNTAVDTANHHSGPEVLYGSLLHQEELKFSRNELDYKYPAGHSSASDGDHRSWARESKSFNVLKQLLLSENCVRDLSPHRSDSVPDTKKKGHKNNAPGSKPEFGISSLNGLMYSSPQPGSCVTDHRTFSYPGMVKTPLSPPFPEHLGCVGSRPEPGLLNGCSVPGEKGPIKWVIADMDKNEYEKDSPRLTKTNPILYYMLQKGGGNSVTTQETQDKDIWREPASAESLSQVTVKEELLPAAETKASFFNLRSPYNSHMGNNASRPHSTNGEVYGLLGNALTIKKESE
Briefly: co-IP; lysates of transfected 293T cells, immunoprecipitation with an anti-Flag antibody, partner detected with anti-HA.

In another test the target is T2, FADD (UniProt Q61160).
T2 sequence: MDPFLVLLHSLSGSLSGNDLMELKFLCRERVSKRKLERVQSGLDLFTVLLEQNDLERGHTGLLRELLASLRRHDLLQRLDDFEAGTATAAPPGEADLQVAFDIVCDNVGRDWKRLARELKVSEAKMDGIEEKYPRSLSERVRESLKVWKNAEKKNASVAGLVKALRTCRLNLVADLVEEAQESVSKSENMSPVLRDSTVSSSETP
The description is as above.

These are yes or no findings as the source states them, for the method shown. Binding seen in cells or lysates may run through a third protein. Some binding calls cover weakened binding; strength is not graded here. Tags and fused reporters may be left off the sequences shown.

B1: FADD (protein, UniProt Q61160 1-205)
chain: MDPFLVLLHSLSGSLSGNDLMELKFLCRERVSKRKLERVQSGLDLFTVLLEQNDLERGHTGLLRELLASLRRHDLLQRLDDFEAGTATAAPPGEADLQVAFDIVCDNVGRDWKRLARELKVSEAKMDGIEEKYPRSLSERVRESLKVWKNAEKKNASVAGLVKALRTCRLNLVADLVEEAQESVSKSENMSPVLRDSTVSSSETP
In the case of B1, the binding result with Flag‐RIP140 was “binds”.

B2: HA‐PPAR‐α (protein, UniProt P23204 1-468)
chain: MVDTESPICPLSPLEADDLESPLSEEFLQEMGNIQEISQSIGEESSGSFGFADYQYLGSCPGSEGSVITDTLSPASSPSSVSCPVIPASTDESPGSALNIECRICGDKASGYHYGVHACEGCKGFFRRTIRLKLVYDKCDRSCKIQKKNRNKCQYCRFHKCLSVGMSHNAIRFGRMPRSEKAKLKAEILTCEHDLKDSETADLKSLGKRIHEAYLKNFNMNKVKARVILAGKTSNNPPFVIHDMETLCMAEKTLVAKMVANGVEDKEAEVRFFHCCQCMSVETVTELTEFAKAIPGFANLDLNDQVTLLKYGVYEAIFTMLSSLMNKDGMLIAYGNGFITREFLKNLRKPFCDIMEPKFDFAMKFNALELDDSDISLFVAAIICCGDRPGLLNIGYIEKLQEGIVHVLKLHLQSNHPDDTFLFPKLLQKMVDLRQLVTEHAQLVQVIKKTESDAALHPLLQEIYRDMY
Consider B2, for which the binding result with FADD is recorded as “binds”.

The values above are taken from publication PMC4967943.
